# PubChem BioAssay AID2685 (National Center for Advancing Translational Sciences (NCATS), 2010)
# In all, about 320,000 compounds went through this assay and about 2,100 (0.66%) were called active. Inconclusive results, whose numbers are uncertain, are shown with a selection of clear calls. Calls follow the shape of the dose curve; as a rule, active = well fitted inhibition curve with a large enough effect in the signal ratio, with a control signal flat (not every such curve was filed as active); inconclusive = small, poorly fitted or top-dose-only effect, or effect the other way, or a change in a side signal; inactive = flat fitted curve, though single readings scatter; the % refers to the signal ratio. A potency beside an inconclusive call is a rough fit, not a confirmed value.
# Experiment: qHTS Assay for Lipid Storage Modulators in Drosophila S3 Cells
# Conditions: BODIPY lipid droplet fluorescence, 18-24 h, cells fed with added oleic acid; lipid storage change, negative = inhibition: at 46.1 µM (top of the series) unless noted
# Method in brief: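 Laser-scanning cytometry quantifies lipid droplet accumulation (500–530 nm total intensity; droplet/cell object ratio) in oleic acid-fed (400 uM added) Drosophila S3 cells treated with a concentration series. 20 uM Triacsin C defined 100% inhibition.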
# % is scaled to controls: 0 for no effect and ±100 for the full control effect; potency is read from the fitted curve at half-maximal effect.
Compound,"lipid storage change, negative = inhibition",Potency
CC1CCN(S(=O)(=O)c2ccc(C(=O)NC3CCS(=O)(=O)C3)cc2)CC1 (stereo unspecified),inconclusive: 13.9%,
COC(=O)c1[nH]c2cccc(C)c2c1NC(=O)CN1CCN(c2ccccc2OC)CC1,inconclusive: -0.582%,
O=C(COC(=O)c1ccc(CO)cc1)Nc1ccc2ccccc2c1,inconclusive: -24.1%,
N#Cc1c(NCCCO)nc(NCc2ccccc2)c2c1CCN(Cc1ccccc1)C2,inconclusive: -25.2%,
COCc1nnc(NC(=O)c2cccs2)s1,inconclusive: 30.2%,
CCC(C(=O)NC1CCCC1)N(C(=O)Cn1nnc(-c2ccc(C)o2)n1)c1cccc(OC)c1 (stereo unspecified),,"inconclusive: 25.9 µM [activator, single point]"
Cc1ccc(O)c(-c2cc(C(F)(F)F)[nH]n2)c1,inconclusive: -12.8%,
Cc1ccc(NS(=O)(=O)c2ccc(C(=O)N3CCCCCC3)cc2)cc1,inconclusive: -13.7%,
CC(C)CN(CCCNC(=O)CN1C(=O)COc2ccc(S(=O)(=O)N3CCCCCC3)cc21)CC(C)C,inconclusive: -19.5%,
O=C1CC(=O)Nc2cc(S(=O)(=O)N3CCOc4ccccc43)ccc2N1,,"inconclusive: 0.206 µM [activator, partial curve]"
COc1ccc(OC)c(S(=O)(=O)N2CCN(C(=O)c3cc(C4CC4)nn3-c3ccccc3)CC2)c1,inconclusive: -28.2%,
CCOC(=O)C1=C(C)Nc2nc(C)nn2C1c1cc(OC)ccc1OC (stereo unspecified),inconclusive: 0.64%,
COc1cc(-c2nnc(SCC(=O)NC3CCS(=O)(=O)C3)o2)cc(OC)c1OC (stereo unspecified),inconclusive: 44.4%,
COC(=O)C(C)N(c1ccc(C)cc1)S(=O)(=O)c1c(C)[nH]c(=O)[nH]c1=O (stereo unspecified),,active: 25.9 µM
COc1ccc(S(=O)(=O)NC(N)=NCCc2ccccc2OC)cc1,inconclusive: 9.08%,
Cc1ccc(N)c2c1OCCC2=O,,"inconclusive: 29.1 µM [activator, single point]"
CCc1ccc(NC(=O)[C@H](Cc2ccccc2)NC(=O)C2CCN(C(=O)[C@@H](N)CC(C)C)CC2)cc1,inactive,
O=C(O)CCC(=O)Nc1ccc(Cc2ccc(NC(=O)CCC(=O)O)c(O)c2)cc1O,inconclusive: -1.64%,
Cc1ccc(N=Nc2c(N)nn3c(C)cc(C)nc23)cc1,inconclusive: -44.3%,
Cc1ccc(C(=O)Nc2ccccc2C(=O)NC(Cc2c[nH]c3ccccc23)C(=O)O)cc1 (stereo unspecified),inactive,
Cc1cc(OCC(=O)Nc2ccccc2C)no1,inconclusive: -18.7%,
COc1ccc(S(=O)(=O)N2CCN(CC(=O)Nc3sccc3C(N)=O)CC2)cc1OC,inconclusive: 5.15%,
Cc1cccc(CSc2ccc3nnc(-c4cccnc4)n3n2)c1,inconclusive: -0.608%,
Cc1ccc(-c2csc(NC(=O)CN3CCOCC3)n2)cc1,,"inconclusive: 0.116 µM [falling, full curve, poor fit]"
NC(N)=Nc1nc2ccc([N+](=O)[O-])cc2[nH]1,inconclusive: 6.99%,
Cc1c(NC(=O)c2cc(-c3cccc(Cl)c3)on2)c(=O)n(-c2ccccc2)n1C,,"inconclusive: 0.731 µM [activator, full curve, poor fit]"

# Quoted at random: two compounds from above
Compound,"lipid storage change, negative = inhibition",Potency
COc1ccc(OC)c(S(=O)(=O)N2CCN(C(=O)c3cc(C4CC4)nn3-c3ccccc3)CC2)c1,inconclusive: -28.2%,
CC(C)CN(CCCNC(=O)CN1C(=O)COc2ccc(S(=O)(=O)N3CCCCCC3)cc21)CC(C)C,inconclusive: -19.5%,

# Next part

Compound,"lipid storage change, negative = inhibition",Potency
CCn1c(=Nc2ccc(N3CCOCC3)cc2)ccc2ccccc21,,active: 9.2 µM
O=C(OCc1nnc(-c2ccc([N+](=O)[O-])cc2)o1)C1CC(=O)N(CCc2ccccc2)C1 (stereo unspecified),,"inconclusive: 29.1 µM [activator, single point]"
CSc1cc(-c2ccncc2)nc(-c2ccc(Cl)cc2)c1,inconclusive: 18.9%,
CCOc1ccccc1N(CC(=O)Nc1ccc(OC)cc1OC)S(=O)(=O)c1ccccc1,inconclusive: -29.8%,
Cc1cc(C)cc(N(CCC#N)C(=O)COC(=O)CCc2c[nH]c3ccccc23)c1,inconclusive: -67.7%,
CC(C(=O)Nc1ccncc1)(c1ccccc1)c1ccccc1,inconclusive: 12.7%,
Cc1ccc(OCC(=O)Nc2cc(S(=O)(=O)N3CCCCC3)ccc2N2CCN(C)CC2)c(C)c1,inconclusive,
Cc1ccc(OCCC(=O)OCC(=O)Nc2ccc(N3CCOCC3)cc2)cc1,inconclusive: -11.4%,
Cc1ccsc1/C=C/C(=O)O,inconclusive: -49.2%,
CCC1(CC)NC(=O)N(CC(=O)N2CCN(c3ccccc3F)CC2)C1=O,inconclusive: 9.52%,
Cc1sc2ncnc(OCC(=O)N3CCN(C(=O)c4ccco4)CC3)c2c1C,inconclusive: 21.1%,
CCOc1cc(C(=O)N2CCC(CC3CC(c4cccc(Br)c4)=NO3)(C(=O)NCC3CCCCC3)CC2)cc(OCC)c1OCC (stereo unspecified),,active: 2.06 µM
CCOC(=O)CN1C(=O)N(CC(=O)OCC)C(c2ccccc2)(c2ccccc2)C1=O,,"inconclusive: 29.1 µM [activator, single point]"
CCOc1ccc(CCNC(=O)C(C)n2nc(C)n3c(cc4occc43)c2=O)cc1OCC (stereo unspecified),,"inconclusive: 0.103 µM [activator, full curve, poor fit]"
O=C(COc1ncnc2ccccc12)NCCCN1CCCC1=O,inconclusive: -13.8%,
COc1cc(NC(=S)NCCc2ccc(S(N)(=O)=O)cc2)c(OC)cc1Cl,inconclusive: -23.3%,
CN1C(=O)/C(=C/c2ccccc2OCc2ccccc2)NC1=S,,"inconclusive: 6.51 µM [falling, single point]"
CCCN(CCC)Cc1c(C(=O)N/N=C/C(C)=C\c2ccccc2)nnn1-c1nonc1N,inconclusive: -100%,
O=C(O)c1ccc(Cl)cc1NC(=O)C1CCCO1 (stereo unspecified),inconclusive: -2.81%,
Cc1ccc(OCCCn2ccnc2)c(Br)c1,,"inconclusive: 8.2 µM [falling, single point]"
O=C1N(CN2CCN(c3cccc(Cl)c3)CC2)c2ccccc2C12OCCCO2,,"inconclusive: 3.26 µM [falling, single point]"
COc1ccc(-c2csc(NC(=O)C3CSC4(C)CCC(=O)N34)n2)cc1 (stereo unspecified),inconclusive: -11.3%,
CC1S/C(=N/N=C2CCC(C(C)(C)C)CC2)NC1=O (stereo unspecified),inconclusive: 8.11%,
O=C(CSc1nc(NS(=O)(=O)c2ccccc2)cc(=O)[nH]1)Nc1ccc(Cl)cc1,inconclusive: -20.2%,
O=C(COc1ccc(S(=O)(=O)N2CCOCC2)cc1)N1CCOCC1,inconclusive: -5.6%,
COc1ccc2nc(NC(=O)CCN3C(=S)NC(C)(C)CC3C)sc2c1 (stereo unspecified),inactive,

Compound,"lipid storage change, negative = inhibition",Potency
CCn1ncc([N+](=O)[O-])c1C(=O)N1CCc2ccccc2C1,inconclusive: -15.4%,
CCOc1ccc(-c2c(C#N)c(N)nc3c2c(=O)n(C)c(=O)n3C)cc1OC,inconclusive: 10.1%,
COc1ccc(NC(=S)N2CCCCCC2)cc1OC,inconclusive: 39.3%,
COC(=O)c1c(N2C(=O)CCC2=O)sc2c1CCCC2,,"inconclusive: 6.51 µM [activator, single point]"
NC(=O)N/N=C/c1ccc(-n2nncc2-c2ccc(Cl)cc2)cc1,,"inconclusive: 20.6 µM [falling, partial curve, poor fit]"
CC(C)(C)OC(=O)N1CCC(C(=O)N[C@@H](Cc2ccccc2)C(=O)O)CC1,,"inconclusive: 1.03 µM [cytotoxic, full curve, poor fit]"
Cc1cccnc1NC(=O)C(C)N1C(=O)c2ccccc2C1=O (stereo unspecified),inconclusive: 15.3%,
CCOc1cc(S(=O)(=O)N2CCCCCC2)ccc1F,,"inconclusive: 0.651 µM [falling, single point]"
Cc1nc([N+](=O)[O-])c(SCC(N)=O)n1Cc1ccccc1,inactive,
Cc1ccc(S(=O)(=O)/C(C#N)=C/c2c(N3CCOCC3)nc3c(C)cccn3c2=O)cc1,inconclusive: 2.53%,
CCOc1ccc(S(=O)(=O)NCc2ccccc2)cc1C(N)=O,inconclusive: -20.7%,
COc1ccc2c(c1)[nH]c1c(=O)n(/N=C/c3ccc(OC)c(COc4ccccn4)c3)cnc12,inconclusive: 30.9%,
CCOC(=O)CN1CC23C=CC(O2)C(C(=O)Nc2ccc(OC)cc2OC)C3C1=O (stereo unspecified),inconclusive: 32%,
Cc1ccc(NC(=O)[C@@H](CC(C)C)NC(=O)[C@@H]2Cc3ccccc3CN2)cc1,,"inconclusive: 29.1 µM [activator, single point]"
COc1cc(NC(=O)c2ccco2)c(OC)cc1NC(=O)CSc1ncc(-c2ccc(F)cc2)[nH]1,inconclusive: 8.64%,
Cc1ccc(S(=O)(=O)Nc2cccc(C(=O)N3CCN(c4ccccc4O)CC3)c2)cc1F,inconclusive: 30.6%,
CC(=O)N1CCN(c2ccc(NC(=O)c3ccc4c(c3)OCO4)cc2)CC1,,"inconclusive: 0.0052 µM [activator, full curve, poor fit]"
COCC(C)N1C(=O)Cc2c1nc(N)c1c(N)nc(N3CCN(c4ccccc4F)CC3)c(C#N)c21 (stereo unspecified),inconclusive: -28.3%,
CC1(C)Cc2c(C#N)c(N3CCN(C(=O)c4ccco4)CC3)nc(-c3ccco3)c2CS1,inconclusive: -18.5%,
CCc1sc(C(=O)NNC(=O)CNC(=O)c2ccccc2F)cc1C,inconclusive: -79.1%,
CCC(C(=O)O)n1nnc(-c2ccc(OCc3ccccc3)c(OC)c2)n1 (stereo unspecified),,"inconclusive: 11.6 µM [activator, single point]"
O=C(Cc1cc(=O)[nH][nH]1)N/N=C/C=C/c1ccccc1,inconclusive: 3.48%,
CN1CCO/C1=C(\C(Cl)=C(Cl)Cl)[N+](=O)[O-],inconclusive: 23.6%,
O=C(c1ccc([N+](=O)[O-])s1)N1CCCc2ccccc21,,"inconclusive: 5.17 µM [activator, single point]"
